Data from PMC7072583 (Biomolecules, 2020).

Assay: peptide made by a vendor
Conditions: whole synthesis, reversed phase analytical HPLC

FITC-(Acp)-KARKKKLNKKGRKMAGRKRGRPKK (N-terminal FITC-Acp)
final HPLC purity: >99% purity
